At least one compound was matched to its structure with a doubt left.
Test system: tetracycline responsive lux reporter HEK293 cells (pLuxAB/pLuxCDEfrp-TET)
Assay: Bioluminescent measurement in response to doxycycline
Assay type: cell-based, human
Conditions: 500 ng doxycycline/ml
Method: Cell lines displaying the greatest upregulation of luxC gene transcription following treatment with 10 ng and 100 ng Doxycycline/ml were passaged into 75 cm^2 tissue culture flasks (Corning) and grown at 37° C. and 5% CO2 until they reached 90% confluence. Cells were then harvested by trypsinization and cell number was determined as the average of two counts using a hemocytometer. Approximately 1×10^6 cells per well were plated in triplicate in opaque 24-well tissue culture plates (Costar) in DMEM without phenol red and supplemented with 10% fetal bovine serum, 0.01 mM non-essential amino acids, and 0.01 mM sodium pyruvate. Immediately post plating, wells were spiked with either 0, 10, 100, or 500 ng Doxycycline/ml. Photon counts were then recorded using an IVIS Lumina in vivo imaging system and analyzed with Living Image 3.0 software (Caliper Life Sciences). The change in light output over time was determined in photons (p)/sec (s) for each well by averaging the photon output over integration times of 10 min and reported with the standard error of the mean.

## C[C@H]1c2cccc(O)c2C(=O)C2=C(O)[C@]3(O)C(=O)C(C(N)=O)=C(O)[C@@H](N(C)C)[C@@H]3[C@@H](O)[C@@H]21 [doxycycline]
  further increase in bioluminescent production: not able to induce any further increase in bioluminescent output

Source: patent publication US20130031644A1, “AUTONOMOUS LUX REPORTER SYSTEM AND METHODS OF USE” (University of Tennessee Research Foundation, priority 2011, published 2013)
